Experimental data as given in the supplement of paper PMC12873370.
This is one part of the list. Most values come without repeats; read them as rough.

System: PREPP (mouse prostate epithelium Trp53/Pten KO)
Experiment: cell viability relative to untreated (fraction); higher = less growth inhibition
Details: 5 µM; 3 days

Row | Compound | cell viability
1 | COc1ccc2ccc(=O)oc2c1CC=C(C)C | 1.19
2 | CC1(C)C2CCC1(C)C(O)C2 (stereo not drawn) | 0.859
3 | COc1ccc2cc1Oc1ccc(cc1)C[C@H]1c3c(cc4c(c3Oc3cc5c(cc3OC)CCN(C)[C@@H]5C2)OCO4)CCN1C | 0.709
4 | O=c1c(-c2ccc(O)cc2)coc2cc(O[C@@H]3O[C@H](CO)[C@@H](O)[C@H](O)[C@H]3O)ccc12 | 0.853
5 | COc1ccc([C@@H]2CC(=O)c3c(O)cc(O[C@@H]4O[C@H](CO)[C@@H](O)[C@H](O)[C@H]4O[C@@H]4O[C@@H](C)[C@H](O)[C@@H](O)[C@H]4O)cc3O2)cc1O | 1.06
6 | O=C1c2c(O)cccc2C([C@@H]2O[C@H](CO)[C@@H](O)[C@H](O)[C@H]2O)c2cc(CO)cc(O)c21 (stereo partly drawn) | 1.05
7 | COC(=O)C1=CO[C@@H](O[C@@H]2O[C@H](CO)[C@@H](O)[C@H](O)[C@H]2O)[C@@H]2C(CO)=CC[C@H]12 | 0.906
8 | COC(=O)Nc1nc2cc(C(=O)c3cccs3)ccc2[nH]1 | 0.789
9 | NC(=O)N1c2ccccc2CC(=O)c2ccccc21 | 0.875
10 | CCc1c(Cl)c(O)c(Cl)c(O)c1C(=O)O[C@H]1[C@H](O)[C@H](OC)[C@H](OC/C2=C\C=C\C[C@H](O)/C(C)=C/[C@H](CC)[C@@H](O[C@@H]3OC(C)(C)[C@@H](OC(=O)C(C)C)[C@H](O)[C@@H]3O)/C(C)=C/C(C)=C/C[C@@H]([C@@H](C)O)OC2=O)O[C@@H]1C | 0.878
11 | OC(Cn1cncn1)(Cn1cncn1)c1ccc(F)cc1F | 0.97
12 | CC1CCC2(O)C(C)(C)C3CCC2(C)C1C3 (stereo not drawn) | 0.986
13 | CCCCCCCCC(=O)O | 0.84
14 | Cn1c(=O)c2c(ncn2C)n(C)c1=O | 1.03
15 | O=c1c(-c2ccc(O[C@@H]3O[C@H](CO)[C@@H](O)[C@H](O)[C@H]3O)cc2)coc2cc(O)cc(O)c12 | 0.946
16 | CC1(C)CCC[C@](C)([C@H]2CC[C@]3(C)[C@@H]2[C@H](O)C[C@@H]2[C@@]4(C)CC[C@H](O)C(C)(C)[C@@H]4[C@H](O)C[C@]23C)O1 | 0.941
17 | C[C@H]1[C@@H](O)O[C@@H]2O[C@@]3(C)CC[C@H]4[C@H](C)CC[C@@H]1[C@@]24OO3 | 0.839
18 | COC(=O)[C@@H]1[C@H]2C[C@H]3c4[nH]c5ccccc5c4CCN3C[C@@H]2CC[C@@H]1O | 1.08
19 | COC(=O)c1ccc(O)cc1 | 0.954
20 | C[C@H]1[C@H](C)CC[C@]2(C(=O)O)CC[C@]3(C)C(=CC[C@@H]4[C@@]5(C)C[C@@H](O)[C@H](O)[C@@](C)(CO)[C@@H]5CC[C@]43C)[C@H]12 | 0.879
21 | CCCCCCCCCCCCCCCC(=O)OC | 0.879
22 | C[C@@H]1[C@H](O)[C@@H](C)/C=C/C=C/C=C/C=C/C=C/C=C/C=C/[C@H](O[C@@H]2O[C@H](C)[C@@H](O)[C@H](N)[C@@H]2O)C[C@@H]2O[C@](O)(C[C@@H](O)C[C@@H](O)[C@H](O)CC[C@@H](O)C[C@@H](O)CC(=O)O[C@H]1C)C[C@H](O)[C@H]2C(=O)O | 0.92
23 | NCC(=O)CCC(=O)O | 0.906

3 entries already listed, sorted by count of non-hydrogen atoms, ascending.
Row | Compound | cell viability
13 | CCCCCCCCC(=O)O | 0.84
8 | COC(=O)Nc1nc2cc(C(=O)c3cccs3)ccc2[nH]1 | 0.789
15 | O=c1c(-c2ccc(O[C@@H]3O[C@H](CO)[C@@H](O)[C@H](O)[C@H]3O)cc2)coc2cc(O)cc(O)c12 | 0.946
